Consider 53 compounds from PubChem BioAssay AID1487 (National Center for Advancing Translational Sciences (NCATS), 2009).

SMILES strings stand for the structures. Values joined by “and” are separate entries in the source; they are usually repeats but may differ in a detail not shown here. Equal values may be shown once. Some of the results follow. Shown are side measurements of this screen, not its main read-out; they come without a call. Most of these compounds were active or inconclusive in the main read-out, so they are no random draw. Potencies come from curve fits of mixed quality, noted in brackets.

A short description of the test: qHTS Assay for Modulators of Lamin A Splicing. The settings on record: HeLa LMNA splicing GFP/RFP minigene ratio, 48 h. The gist of the method:
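S3 HeLa stable clones carrying a lamin A-EGFP splicing minigene plus DsRed2 were seeded at 600 cells/well in Opti-MEM with 2% FBS, pin-dosed and incubated 48 h at 37°C. Acumen cytometry (488 nm) gave the GFP/RFP total-intensity ratio.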
On the technique in general: qHTS replaces the single test concentration by a dilution series.

[1] abbreviates: measured here: RFP viability control channel.
Where [2] appears, read: measured here: GFP splicing reporter channel.

For `COc1cccc(CNC(=O)c2cc3c(C)nc4ccccc4c3o2)c1`, the AC50 (commonly the concentration giving half of the maximal activity seen) under setting [1] is 17.8 µM [rising, partial curve].

Take `CN1/C(=C\C=N\NC(=O)c2ccc(O)cc2)C(C)(C)c2ccccc21`: the AC50 under setting [1] is 15.8 µM [rising, single point].

Consider `CCN1CCCC1CNC(=O)CSc1cc(=O)n(C)c2cc(Cl)ccc12` (configuration not stated), for which, under setting [1], the AC50 is 15.8 µM [rising, single point].

As for `CNC(=O)C(Sc1ccccc1)c1ccccc1` (configuration not stated), under setting [1], the AC50 is 3.55 µM [falling, single point].

With `CC1=C(CC(=O)c2ccc(Cl)cc2)C(=O)c2ccccc2C1=O`, the AC50 was 35.5 µM [falling, single point] under setting [2] and 14.1 µM [falling, partial curve] under setting [1].

In the case of `O=C(O)P(=O)(O)O`, the AC50 by setting is: under setting [2], 0.355 µM [falling, partial curve]; under setting [1], 0.355 µM [falling, partial curve].

`O=C(O)/C=C/c1cccc(OCc2ccccc2)c1`: the AC50 under setting [2] was 1.58 µM [rising, partial curve, poor fit].

`Cc1nc(SCC(=O)NC(C)(C#N)C2CC2)c2c(-c3cccs3)csc2n1` (configuration not stated): the AC50 under setting [1] is 11.2 µM [rising, partial curve].

Consider `N#CCc1ccc(NC(=O)/C=C/c2ccc([N+](=O)[O-])o2)cc1`, for which the AC50 is, setting by setting: under setting [2], 0.631 µM [falling, full curve]; under setting [1], 5.01 µM [falling, partial curve].

For `COc1ccc(Cl)cc1Nc1sc(C(=O)c2ccccc2)c(N)c1C(=O)Nc1ccccc1`, the AC50 under setting [1] is 20 µM [rising, single point].

As to `CC(=O)N1CCc2cc(CNS(=O)(=O)c3ccc(F)cc3)ccc21`, under setting [2], the AC50 is 0.562 µM [rising, single point].

On to `OCCCNc1c2c(nc3cc(-c4ccc(Cl)cc4)nn13)CCC2`, for which, under setting [2], the AC50 is 1 µM [rising, full curve, poor fit].

Regarding `COc1ccc(NS(=O)(=O)c2ccc3oc4ccccc4c3c2)cn1`, under setting [1], the AC50 was 8.91 µM [rising, partial curve, poor fit].

With `CC1(C)OC2C(CO)OC(n3cnc4c(=S)nc[nH]c43)C2O1` (configuration not stated), the AC50 under setting [1] was 0.0891 µM [falling, full curve, poor fit].

As to `CC(C)(C)n1nnnc1C(c1cccs1)N(Cc1cccnc1)Cc1ccccc1Cl` (configuration not stated), under setting [2], the half-maximal activity concentration (AC50) is 35.5 µM [falling, single point].

For `CCCCCCCCCCCCCCCC[N+](C)(C)CCN(Cc1ccc(OC)cc1)c1ncccn1`, the AC50 reads like this: under setting [2], 5.62 µM [falling, partial curve, poor fit]; under setting [1], 7.08 µM [rising, partial curve, poor fit].

Take `O=C1OCC2=C1C(c1ccccc1)CC(=O)N2c1cccc(F)c1` (configuration not stated): the AC50 under setting [2] was 11.2 µM [falling, single point].

Regarding `N#Cc1c(NC(=O)CSc2n[nH]c(N)n2)oc(-c2ccccc2)c1-c1ccccc1`, the AC50 under setting [2] was 1.41 µM [rising, partial curve].

For the compound `O=C(CCc1c[nH]c2ccccc12)NCC(=O)Nc1ccc(F)c(F)c1F`, the AC50 under setting [1] was 39.8 µM [rising, partial curve, poor fit].

`CCOC(=O)N1CCN(C(=O)c2noc(C(C)C)c2[N+](=O)[O-])CC1`: the AC50 under setting [2] was 0.282 µM [falling, full curve, poor fit] and the AC50 under setting [1] is 0.251 µM [falling, full curve, poor fit].

As to `O=C(NCCCN1CCN(c2ccccc2F)CC1)Nc1ccc(F)cc1`, the AC50 runs as follows: under setting [2], 3.98 µM [falling, partial curve, poor fit]; under setting [1], 5.62 µM [falling, single point].

On to `O=C(Cn1cnc2c(cnn2-c2ccccc2)c1=O)Nc1cc(S(=O)(=O)N2CCOCC2)ccc1Cl`, for which the AC50 was 8.91 µM [rising, partial curve, poor fit] under setting [2] and 20 µM [rising, partial curve] under setting [1].

For `CC(=O)Nc1cc(C(=O)N2CCc3ccccc3C2)ccc1Sc1ccc(F)cc1`, the AC50 under setting [2] is 15.8 µM [rising, single point] and the AC50 under setting [1] is 22.4 µM [rising, single point].

Turning to `CC(=O)c1ccc(NS(=O)(=O)c2ccc3ccccc3c2)cc1`, the AC50 is, setting by setting: under setting [2], 1.78 µM [rising, full curve, poor fit]; under setting [1], 14.1 µM [rising, partial curve].

`Cn1cnnc1SCc1ccc(C(=O)N=Nc2c(O)n(Cc3ccc(Cl)cc3)c3ccccc23)cc1`: the AC50 reads like this: under setting [2], 17.8 µM [rising, partial curve]; under setting [1], 35.5 µM [rising, single point].

As for `O=C(c1cnccn1)N1CCN(S(=O)(=O)c2ccc3ccccc3c2)CC1`, the AC50 under setting [1] is 15.8 µM [rising, single point].

Regarding `CCOC(=O)N/N=C/c1ccc(N(CC)CC)cc1O`, the AC50 was 7.94 µM [rising, partial curve] under setting [2] and 14.1 µM [rising, partial curve] under setting [1].

Consider `NC(=O)CSc1nc2c(c(=O)n1-c1ccccc1)C1(CCCCC1)Cc1ccccc1-2`, for which the AC50 under setting [1] was 8.91 µM [rising, partial curve].

For the compound `O=C(O)CCCCCn1c(SCC(=O)c2ccc(O)c(O)c2)nc2ccsc2c1=O`, the AC50 under setting [2] is 31.6 µM [rising, single point].

Turning to `CCOc1ccc(S(=O)(=O)N2CCC(C(N)=O)CC2)c2ccccc12`, the AC50 under setting [1] was 10 µM [rising, partial curve].

For `O=C(CSc1nnc(-c2c[nH]c3ccccc23)o1)N1CCCCC1`, the AC50 under setting [1] is 31.6 µM [rising, single point].

For `CC(OC(=O)c1ccccc1O)C(=O)Nc1ccc(Cl)cn1` (configuration not stated), the AC50 under setting [1] was 2.51 µM [falling, partial curve].

As for `CC(C)c1ccc(NC(=O)c2ccc(NS(C)(=O)=O)cc2)cc1`, the AC50 by setting is: under setting [2], 0.398 µM [rising, partial curve, poor fit]; under setting [1], 8.91 µM [rising, partial curve].

Take `CN(C)CCCCSC(=N)N`: the AC50 under setting [2] was 2.82 µM [rising, partial curve, poor fit].

Turning to `CC(CCN(C)C)OC(=O)c1ccc(C(C)c2ccccc2)o1` (configuration not stated), the AC50 under setting [1] was 35.5 µM [rising, single point].

With `CC(C)CCNC(=O)C1CCN(c2nc3ccccc3o2)CC1`, under setting [1], the AC50 is 22.4 µM [rising, single point].

For `CCN(CC)CCn1c(SCC(=O)NCc2ccccc2)nc2c(sc3ccccc32)c1=O`, the AC50 under setting [2] is 0.0282 µM [rising, full curve, poor fit].

`O=C(c1ccc(F)cc1)[C@@H]1[C@@H](C(=O)c2ccccc2)[C@@]2(C(=O)Nc3ccccc32)[C@H]2c3ccccc3C=CN12`: the AC50 was 0.891 µM [rising, partial curve, poor fit] under setting [2] and 0.00355 µM [rising, full curve, poor fit] under setting [1].

With `O=C(Nc1cccc(F)c1)c1cccnc1N1CCOCC1`, the half-maximal activity concentration (AC50) under setting [2] is 11.2 µM [rising, partial curve].

With `CN(C)CCCN(C(=O)/C=C/c1cccs1)c1nc2c(F)cccc2s1`, under setting [2], the AC50 was 2.24 µM [falling, partial curve].

With `CC(C)C(OC(=O)c1cc2c(s1)CCCCC2)C(=O)NC(N)=O` (configuration not stated), under setting [1], the AC50 is 35.5 µM [rising, single point].

Take `c1ccc(Cn2c(CNc3nc4ccccc4n3CCN3CCCCC3)nc3ccccc32)cc1`: the AC50 runs as follows: under setting [2], 12.6 µM [rising, partial curve]; under setting [1], 14.1 µM [rising, partial curve].

As to `CCOC(=O)c1cnn(-c2ccccc2)c1-n1cccc1C(=O)C(=O)Nc1ccccc1C(F)(F)F`, the half-maximal activity concentration (AC50) under setting [2] is 35.5 µM [falling, single point].

For the compound `CS(=O)(=O)c1ccc(Cl)c(NC(=O)COC(=O)c2ccc(F)cc2Cl)c1`, under setting [2], the AC50 was 0.0355 µM [falling, full curve, poor fit].

With `CC(C)NCC(O)c1ccc(NS(C)(=O)=O)cc1` (configuration not stated), the AC50 under setting [2] was 0.891 nM [falling, full curve, poor fit] and 6.31 µM [falling, partial curve, poor fit]; the AC50 under setting [1] was 11.2 µM [rising, single point] and 3.55 nM [falling, full curve, poor fit] and 5.62 µM [falling, single point].

As to `Cc1ccc2[nH]cc(C(=O)NCc3cccs3)c(=O)c2c1`, the AC50 under setting [1] was 20 µM [rising, single point].

As to `c1ccc(-n2cnc3cc(NCc4ccco4)ccc32)cc1`, the AC50 by setting is: under setting [2], 0.0355 µM [rising, full curve, poor fit]; under setting [1], 0.0224 µM [rising, full curve, poor fit].

As for `CCn1c(SCc2ccc(C(=O)Nc3cc(C)cc(C)c3)cc2)nnc1-c1ccncc1`, the half-maximal activity concentration (AC50) under setting [1] is 15.8 µM [rising, single point].

For `O=C(Nc1nc2ccc(F)cc2s1)C1CCN(S(=O)(=O)c2cc([N+](=O)[O-])ccc2Cl)CC1`, the AC50 under setting [1] is 1.58 µM [rising, partial curve, poor fit].

In the case of `COc1cc(C(=O)NCC(c2cccnc2)N2CCN(c3ccc(F)cc3)CC2)cc(OC)c1OC` (configuration not stated), the AC50 is, setting by setting: under setting [2], 35.5 µM [falling, single point] and 89.1 nM [rising, full curve, poor fit]; under setting [1], 35.5 µM [falling, single point].

Regarding `Cc1ccccc1CNC(=O)c1ccc(-n2c(C)cc3c2CCCC3)cc1`, the AC50 was 20 µM [falling, single point] under setting [2] and 35.5 µM [falling, single point] under setting [1].

Regarding `C#C[C@]1(O)CC[C@H]2[C@@H]3CCc4cc(OC)ccc4[C@H]3CC[C@@]21C`, the AC50 was 0.00355 µM [falling, full curve, poor fit] under setting [2]; 12.6 µM [rising, single point] and 1.26 µM [falling, full curve, poor fit] under setting [1].

As for `COc1ccc(CNc2nc3c(c(=O)n(Cc4ccc(Cl)cc4)c(=O)n3C)n2C)cc1`, the AC50 under setting [1] was 6.31 µM [rising, partial curve].
